PubChem BioAssay AID1259308 | NCATS, 2017

- Aim: 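Candidate targets for better recombinant protein yield in mammalian cells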 (primary screen)
- Cell system: human HEK293 embryonic kidney cells stably expressing firefly luciferase (HEK-CMV-Luc2-Hygro)
- Reagents: single siRNA against human genes, 0.8 pmol siRNA per well
- Time to read-out: 72 h
- Measurement: 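Reporter luminescence and viable-cell signal on separate replicate plates, given as percent of non-targeting control and median/MAD z-scores, plus per-cell luciferase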
- Direction: total luciferase, z-score and total luciferase, % of control: higher = more reporter protein produced; luciferase per cell, z-score: higher = more reporter output per viable cell; viable cells, % of control: higher = more viable cells
- Active means: 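An siRNA counts as active if its total luciferase robust z-score exceeds 3; genes with two or more such siRNAs out of three were retested with fresh siRNAs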
- Calls: active = raised luciferase; inactive = no rise
Shown is an unselected part of about 59,000 reagents. About 1,510 of all reagents (2.6%) count as active. 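Calls use total luciferase alone and ignore viability, so some active siRNAs may act by altering cell number.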 Reagents against one gene are numbered here. No sequences are given here.

| target gene | reagent no. | total luciferase, z-score | total luciferase, % of control | luciferase per cell, z-score | viable cells, % of control | call |
| --- | --- | --- | --- | --- | --- | --- |
| SLC35F5 | 1 | 0.672 | 95.3 | 1.11 | 79.4 | inactive |
| SLC35F5 | 2 | 0.152 | 84.9 | 1.15 | 70.2 | inactive |
| SLC35F5 | 3 | -0.256 | 76.8 | -0.0461 | 86.9 | inactive |
| SLC75A1 | 1 | 3 | 142 | 2.79 | 76 | active |
| SLC75A1 | 2 | -0.231 | 77.3 | -0.154 | 89.9 | inactive |
| SLC75A1 | 3 | 1.18 | 105 | 0.564 | 101 | inactive |
| TTR | 1 | 0.763 | 97.1 | -0.0144 | 109 | inactive |
| TTR | 2 | 0.128 | 84.4 | -0.285 | 102 | inactive |
| TTR | 3 | -0.0874 | 80.1 | -0.418 | 100 | inactive |
| KLHL26 | 1 | -0.619 | 69.6 | -0.0672 | 79.1 | inactive |
| KLHL26 | 2 | -1.29 | 56.2 | -1.65 | 96.8 | inactive |
| KLHL26 | 3 | 0.936 | 100 | 0.162 | 108 | inactive |
| DYNAP | 1 | -3.28 | 16.7 | -2.68 | 37.9 | inactive |
| DYNAP | 2 | -1.21 | 57.8 | -0.672 | 77.1 | inactive |
| DYNAP | 3 | -0.194 | 78 | -0.502 | 99.5 | inactive |
| DYRK4 | 1 | -0.857 | 64.8 | -0.981 | 93.8 | inactive |
| DYRK4 | 2 | -0.884 | 64.3 | -0.503 | 82 | inactive |
| DYRK4 | 3 | 0.514 | 92.1 | 1.49 | 69.4 | inactive |
| AP3B2 | 1 | -1.31 | 55.9 | 1.03 | 47.7 | inactive |
| AP3B2 | 2 | 0.714 | 96.1 | 1.16 | 79.2 | inactive |
| AP3B2 | 3 | 0.534 | 92.5 | 2.19 | 58.1 | inactive |
| MACROH2A1 | 1 | -0.353 | 74.9 | -0.729 | 101 | inactive |
| MACROH2A1 | 2 | -0.241 | 77.1 | 0.31 | 79.4 | inactive |
| MACROH2A1 | 3 | 2.32 | 128 | 1.31 | 101 | inactive |

A few values from above.
For “viable cells, % of control”, SLC75A1 #2 reads 89.9
Under “call”, AP3B2 #2 shows inactive
